Reference: PubChem BioAssay AID232 (DTP/NCI, 2004)
The list shows only some results of the screen, not a fair sample: it is rich in T/C values a quarter to a half above the control, in often repeated tests (any T/C) and in doses without a T/C. Further doses and runs are listed elsewhere. T/C: endpoint of the treated group in % of that of the vehicle group. Some doses have a count of surviving animals in place of a T/C: the source holds a T/C of zero for them, seemingly a mark for toxic or unscored doses. Some survivor counts are full or nearly so, which does not show that the dose was tolerated: the source hardly ever lists a survival T/C far under the control, and the zero likely stands for such cases as well. Counts of survivors are from the toxicity check (mostly the fifth day) where no day follows; animals may have died later. Schedules are NCI's codes, taken here to give the interval after Q, in days (D) or hours (H), and the number of doses after X. Some entries were tested several times; their values stand side by side, smallest first. For survival time, the PubChem record calls one and a half times the control and up active, and a quarter to a half above the control has no call in these data; cut-offs in other NCI protocols can differ. Brackets with × say how often a value occurs here. Numbered stars: 1 amine (or outer) side, 2 acyl side, 3 side chain; on linkers, the order of the positions; unused ones are H or OH. Bridge positions count the residues as written; N and C are the ends. Square brackets hold non-standard residues; d marks the D form. Peptide text beside a SMILES is read from it. I, II: the chains in the order shown. Actinocin(9to1) = Cc1c2oc3c(C)ccc(C(=O)[*:1])c3nc-2c(C(=O)[*:2])c(N)c1=O; aThr = C[C@H](O)[C@H](N)C(=O)O; NMeV = CN[C@H](C(=O)O)C(C)C; Sar = CNCC(=O)O

Tested on: Gardner 6C3HED lymphosarcoma ip, C3AKF1 mice, survival T/C
Test: NCI In Vivo Anticancer Drug Screen. Data for tumor model Lymphosarcoma Gardner 6C3HED (intraperitoneal) in C3AKF1 (CHKRF1) mice
Settings: T/C endpoint: survival time, mean or median, schedule: Q01DX010 (ip), higher T/C = longer survival
Experimental: The antitumor activity of compounds was measured in mice bearing transplantable tumors. Survival or tumor size were measured and the results are expressed as the measurement made in the treated group (T) divided by the measurement made in the vehicle treated control group (C). The tumor model used in this assay is Lymphosarcoma Gardner 6C3HED (intraperitoneal) in C3AKF1 (CHKRF1) mice

[1] = dose: 0.25 mg/kg/injection, vehicle: saline
[2] = dose: 0.5 mg/kg/injection, vehicle: saline
[3] = dose: 12.5 mg/kg/injection, vehicle: saline
[4] = dose: 25.0 mg/kg/injection, vehicle: saline
[5] = dose: 50.0 mg/kg/injection, vehicle: saline
[6] = dose: 6.25 mg/kg/injection, vehicle: saline

SMILES: CC[C@]1(O)C[C@H]2CN(CCc3c([nH]c4ccccc34)[C@@](C(=O)OC)(c3cc4c(cc3OC)N(C=O)[C@H]3[C@@](O)(C(=O)OC)[C@H](OC(C)=O)[C@]5(CC)C=CCN6CC[C@]43[C@@H]65)C2)C1
- T/C (dose: 0.03 mg/kg/injection, vehicle: saline): 133, 183, 225, 245 % of control
- T/C (dose: 0.06 mg/kg/injection, vehicle: saline): 183, 200, 285, 300 % of control
- T/C [1]: 250 and 300 % of control (2×)
- survivor count [1]: 6 of 6
- T/C [2]: 120 % of control
- survivor count [2]: 6 of 6

SMILES: CCn1cnc2c(=S)nc[nH]c21
- survivor count (dose: 15.6 mg/kg/injection, vehicle: saline): 6 of 6
- survivor count (dose: 62.5 mg/kg/injection, vehicle: saline): 6 of 6
- survivor count (dose: 125.0 mg/kg/injection, vehicle: saline): 6 of 6

SMILES: CSCS(=O)C[C@H](CO)NC(=O)/C=C/c1c(C)[nH]c(=O)[nH]c1=O (stereo not given in full)
- survivor count (dose: 0.13 mg/kg/injection, vehicle: saline): 6 of 6
- survivor count [1]: 6 of 6
- survivor count (dose: 1.0 mg/kg/injection, vehicle: saline): 6 of 6

SMILES: CN(C)c1nc(N(C)C)nc(N(C)C)n1
- survivor count (dose: 18.8 mg/kg/injection, vehicle: saline): 6 of 6
- survivor count (dose: 37.5 mg/kg/injection, vehicle: saline): 6 of 6
- survivor count (dose: 75.0 mg/kg/injection, vehicle: saline): 6 of 6
- survivor count (dose: 150.0 mg/kg/injection, vehicle: saline): 6 of 6
- survivor count (dose: 300.0 mg/kg/injection, vehicle: saline): 5 of 6

SMILES: O=NN(CCCl)C(=O)NCCCl
- T/C [3]: 130 and 133 % of control
- survivor count [4]: 6 of 6
- survivor count [5]: 2 of 6 and 3 of 6

SMILES: CS(=O)(=O)OCCN(CCOS(C)(=O)=O)c1ccc(N=O)cc1
- T/C [2]: 133 % of control
- survivor count (dose: 2.0 mg/kg/injection, vehicle: saline): 6 of 6
- survivor count (dose: 4.0 mg/kg/injection, vehicle: saline): 6 of 6

SMILES: Clc1ncnc2nc[nH]c12
- survivor count (dose: 15.0 mg/kg/injection, vehicle: saline): 6 of 6
- survivor count (dose: 30.0 mg/kg/injection, vehicle: saline): 6 of 6
- survivor count (dose: 60.0 mg/kg/injection, vehicle: saline): 6 of 6

SMILES: CCN(CC)CCNc1ccc(C)c2sc3ccccc3c(=O)c12
- survivor count [4]: 6 of 6
- T/C [5]: 142 % of control
- survivor count (dose: 200.0 mg/kg/injection, vehicle: saline): 6 of 6

SMILES: O=C(Nc1ccc(C2=NCCCN2)cc1)c1ccc(NC(=O)c2ccc(C3=NCCCN3)cc2)cc1
- T/C (dose: 1.0 mg/kg/injection, vehicle: other): 133 and 145 % of control
- survivor count (dose: 16.0 mg/kg/injection, vehicle: other): 4 of 6 and 5 of 6

SMILES: NC(Cc1c[nH]c2ccc(N(CCCl)CCCl)cc12)C(=O)O (stereo not given)
- T/C [1]: 136 and 140 % of control
- T/C [2]: 127 % of control

SMILES: CS(=O)(=O)OCCCCOS(C)(=O)=O
- T/C [6]: 95 and 100 % of control
- survivor count [6]: 6 of 6
- T/C [3]: 86 and 91 % of control
- survivor count [3]: 5 of 6 and 6 of 6
- survivor count [4]: 5 of 6 and 6 of 6
- survivor count [5]: 6 of 6

SMILES: O=P1(N(CCCl)CCCl)NCCCO1 (stereo not given)
- T/C (dose: 11.3 mg/kg/injection, vehicle: saline): 137, 166, 175, 200 % of control
- T/C (dose: 22.5 mg/kg/injection, vehicle: saline): 170, 187, 195, 270 % of control
- T/C (dose: 45.0 mg/kg/injection, vehicle: saline): 125, 129, 250, 300 % of control
- T/C (dose: 90.0 mg/kg/injection, vehicle: saline): 100, 105, 108, 154 % of control
- survivor count (dose: 180.0 mg/kg/injection, vehicle: saline): 5 of 6 and 6 of 6

SMILES: Nc1nc(=S)c2[nH]cnc2[nH]1
- T/C (dose: 1.25 mg/kg/injection, vehicle: saline): 135 % of control
- survivor count (dose: 2.5 mg/kg/injection, vehicle: other): 6 of 6
- survivor count (dose: 5.0 mg/kg/injection, vehicle: other): 5 of 6
- survivor count (dose: 10.0 mg/kg/injection, vehicle: other): 6 of 6

SMILES: Cc1c2oc3c(C)ccc(C(=O)N[C@@H]4C(=O)N[C@H](C(C)C)C(=O)N5CCC[C@H]5C(=O)N(C)CC(=O)N(C)[C@@H](C(C)C)C(=O)O[C@H]4C)c3nc-2c(C(=O)N[C@@H]2C(=O)N[C@H](C(C)C)C(=O)N3CCC[C@H]3C(=O)N(C)CC(=O)N(C)[C@@H](C(C)C)C(=O)O[C@H]2C)c(N)c1=O (I: [aThr][dV]P[Sar][NMeV] / II: [aThr][dV]P[Sar][NMeV]; ester I:1-I:C, II:1-II:C; linker I:N-II:N via Actinocin(9to1))
- T/C (dose: 0.03 mg/kg/injection, vehicle: acid diluted with saline): 145 % of control

SMILES: Nc1nc(SCc2ccccc2)c2[nH]cnc2n1
- survivor count (dose: 8.0 mg/kg/injection, vehicle: saline): 6 of 6
- survivor count (dose: 16.0 mg/kg/injection, vehicle: saline): 6 of 6

SMILES: Nc1ncnc2[nH]ncc12
- survivor count (dose: 12.0 mg/kg/injection, vehicle: saline): 6 of 6

SMILES: CCOC(N)=O
- survivor count (dose: 250.0 mg/kg/injection, vehicle: saline): 5 of 6 and 6 of 6
- survivor count (dose: 500.0 mg/kg/injection, vehicle: saline): 6 of 6
- survivor count (dose: 1000.0 mg/kg/injection, vehicle: saline): 6 of 6
